Measured values from patent US10208089B2, “Modulation of complement activity” (priority 2014, dated 2019).
For some assays here: Part of at least one peptide drawing is inferred or uncertain, most often the ends. For some assays here: At least one structure is not confirmed: it was looked up by name or label, or the drawing left a doubt. Positions of bridges follow the written chain, without caps; N, C: chain ends. Non-standard residues stand in square brackets, D forms with d. Residues, ends and D or L forms follow the SMILES beside them. Triazole bridges read from a SMILES are 1,4-linked. Trp(7-aza) = N[C@@H](Cc1c[nH]c2ncccc12)C(=O)O; Orn(N3) = [N-]=[N+]=NCCC[C@H](N)C(=O)O; Chg = N[C@H](C(=O)O)C1CCCCC1; Phg = N[C@H](C(=O)O)c1ccccc1; Tle = CC(C)(C)[C@H](N)C(=O)O; NMeS = CN[C@@H](CO)C(=O)O; Pra = C#CC[C@H](N)C(=O)O; Nva = CCC[C@H](N)C(=O)O

Amino acid sequences for entries named in this document (tags omitted). Residues count along the entry.
UniProt P01031, 19-1676: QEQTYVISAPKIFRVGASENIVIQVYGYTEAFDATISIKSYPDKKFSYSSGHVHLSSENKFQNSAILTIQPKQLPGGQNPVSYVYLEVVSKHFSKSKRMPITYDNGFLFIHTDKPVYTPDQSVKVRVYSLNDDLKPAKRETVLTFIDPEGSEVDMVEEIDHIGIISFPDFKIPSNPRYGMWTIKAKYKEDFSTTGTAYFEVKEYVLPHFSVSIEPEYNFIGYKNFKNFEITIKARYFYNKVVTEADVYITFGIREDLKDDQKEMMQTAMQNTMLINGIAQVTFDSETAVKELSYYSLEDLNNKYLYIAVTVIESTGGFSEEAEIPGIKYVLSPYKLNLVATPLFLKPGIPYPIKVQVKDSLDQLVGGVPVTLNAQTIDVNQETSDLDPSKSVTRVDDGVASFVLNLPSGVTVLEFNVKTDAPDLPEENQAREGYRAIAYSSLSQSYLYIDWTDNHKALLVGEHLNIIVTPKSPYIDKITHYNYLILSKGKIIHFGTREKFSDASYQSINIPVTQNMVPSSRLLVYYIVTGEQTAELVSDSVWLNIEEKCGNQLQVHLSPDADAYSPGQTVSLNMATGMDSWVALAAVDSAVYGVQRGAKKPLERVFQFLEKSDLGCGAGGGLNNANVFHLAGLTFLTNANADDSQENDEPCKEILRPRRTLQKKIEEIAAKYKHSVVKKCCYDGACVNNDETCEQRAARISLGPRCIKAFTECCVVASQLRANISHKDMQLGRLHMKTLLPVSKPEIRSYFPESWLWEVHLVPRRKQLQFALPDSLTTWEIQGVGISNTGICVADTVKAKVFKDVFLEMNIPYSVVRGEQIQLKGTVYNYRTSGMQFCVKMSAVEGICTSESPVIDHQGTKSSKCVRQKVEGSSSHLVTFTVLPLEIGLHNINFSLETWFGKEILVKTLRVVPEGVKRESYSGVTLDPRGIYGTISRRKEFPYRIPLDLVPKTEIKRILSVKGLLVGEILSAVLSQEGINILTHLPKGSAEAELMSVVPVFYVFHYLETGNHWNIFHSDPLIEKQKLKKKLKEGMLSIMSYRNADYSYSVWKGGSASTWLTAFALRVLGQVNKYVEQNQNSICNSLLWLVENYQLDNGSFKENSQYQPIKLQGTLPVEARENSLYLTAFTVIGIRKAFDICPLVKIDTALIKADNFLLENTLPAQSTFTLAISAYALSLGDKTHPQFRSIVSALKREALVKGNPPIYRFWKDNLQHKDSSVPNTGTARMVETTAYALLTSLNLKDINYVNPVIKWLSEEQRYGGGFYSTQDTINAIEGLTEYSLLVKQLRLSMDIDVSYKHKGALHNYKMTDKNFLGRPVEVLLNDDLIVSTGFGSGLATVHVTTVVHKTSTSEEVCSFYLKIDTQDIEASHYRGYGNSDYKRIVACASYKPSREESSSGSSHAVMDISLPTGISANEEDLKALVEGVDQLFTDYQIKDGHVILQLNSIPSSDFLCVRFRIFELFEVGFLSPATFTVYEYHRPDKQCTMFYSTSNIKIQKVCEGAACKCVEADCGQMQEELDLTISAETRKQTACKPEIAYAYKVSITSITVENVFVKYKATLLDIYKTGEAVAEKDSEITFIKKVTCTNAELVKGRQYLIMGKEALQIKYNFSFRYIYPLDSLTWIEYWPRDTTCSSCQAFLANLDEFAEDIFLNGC

Tests used:
[1] = biological target: T1, C5 (Homo sapiens, UniProt P01031); test: Human hemolysis assay (RBC lysis assay using complete human sera); type: cell-based; set-up: with complete human sera (Complement Technology, Tyler Tex.) and polypeptides; tissue Complement Technology, Tyler Tex; host or cells: complete human serum; settings: inhibition of lysis of antibody-sensitized sheep erythrocytes
[2] = biological target: T1, C5; test: Alternative human hemolysis assay using C5 depleted sera and purified human C5; type: cell-based; set-up: purchased Complement Technology, Tyler, Tex; settings: antibody-sensitized sheep erythrocytes, […] human C5 depleted sera and 0.5 nM purified human C5

Row | Compound | IC50 [1] | IC50 [2]
1 | CCC[C@H](NC(=O)[C@@H]1CCCN1C(=O)[C@H](CCC)NC(=O)[C@@H]1CSSC[C@H](NC(=O)[C@H](CCC)NC(C)=O)C(=O)N[C@@H](c2ccccc2)C(=O)N[C@@H]([C@@H](C)O)C(=O)N[C@@H](Cc2c[nH]c3ncccc23)C(=O)N[C@@H](CCC(=O)O)C(=O)N[C@@H](Cc2ccc(O)cc2)C(=O)N(C)[C@@H](CO)C(=O)N[C@@H](Cc2c[nH]cn2)C(=O)N1)C(=O)O [Compound R3040, [cyclo(2,10)]Ac-Nvl-C-Phg-T-azaTrp-E-Y-(N-Me)S-H-C-Nvl-P-Nvl] (Ac-[Nva]C[Phg]T[Trp(7-aza)]EY[NMeS]HC[Nva]P[Nva]-OH; disulfide 2-10) | > 100 µM | 
2 | CCC[C@H](NC(=O)[C@@H](NC(=O)[C@@H]1CCCN1C(=O)[C@H](Cc1ccc(O)cc1)NC(=O)[C@H](CCC(=O)O)NC(=O)[C@H](Cc1c[nH]c2ncccc12)NC(=O)[C@H](Cc1ccc(O)cc1)NC(=O)[C@@H](NC(=O)[C@H](CC(=O)O)NC(=O)[C@@H]1Cc2cn(nn2)CCC[C@H](NC(C)=O)C(=O)N[C@@H](C(C)C)C(=O)N[C@@H](CCC(=O)O)C(=O)N[C@@H](CCCNC(=N)N)C(=O)N[C@@H](Cc2ccccc2)C(=O)N1)C(C)(C)C)C1CCCCC1)C(=O)O [Compound R3182, [cyclo-triazoly1(1,6)]Ac-X02-V-E-R-F-X31-D-Thg-Y-azaTrp-E-Y-P-Chg-Nvl] (Ac-[Orn(N3)]VERF[Pra]D[Tle]Y[Trp(7-aza)]EYP[Chg][Nva]-OH; triazole 1-6; C-terminus assumed) |  | 0.013 µM
